Measurements from PMC6868278.
Like-named read-outs stand apart in the source and are kept apart here. Results are given in words; binding and its absence hold for the method and conditions named. In cells and extracts the contact can be indirect. These calls come from enrichment with a bait or labelling near it, and not all partners need be listed. Values belong to the molecule of their own block, whether it stands above or below them.

Sequences of proteins named here, by UniProt entry; tags and fusion partners are left off. A change or cut given only in a name is not applied to a line headed by its entry.
UniProt Q9UHB6: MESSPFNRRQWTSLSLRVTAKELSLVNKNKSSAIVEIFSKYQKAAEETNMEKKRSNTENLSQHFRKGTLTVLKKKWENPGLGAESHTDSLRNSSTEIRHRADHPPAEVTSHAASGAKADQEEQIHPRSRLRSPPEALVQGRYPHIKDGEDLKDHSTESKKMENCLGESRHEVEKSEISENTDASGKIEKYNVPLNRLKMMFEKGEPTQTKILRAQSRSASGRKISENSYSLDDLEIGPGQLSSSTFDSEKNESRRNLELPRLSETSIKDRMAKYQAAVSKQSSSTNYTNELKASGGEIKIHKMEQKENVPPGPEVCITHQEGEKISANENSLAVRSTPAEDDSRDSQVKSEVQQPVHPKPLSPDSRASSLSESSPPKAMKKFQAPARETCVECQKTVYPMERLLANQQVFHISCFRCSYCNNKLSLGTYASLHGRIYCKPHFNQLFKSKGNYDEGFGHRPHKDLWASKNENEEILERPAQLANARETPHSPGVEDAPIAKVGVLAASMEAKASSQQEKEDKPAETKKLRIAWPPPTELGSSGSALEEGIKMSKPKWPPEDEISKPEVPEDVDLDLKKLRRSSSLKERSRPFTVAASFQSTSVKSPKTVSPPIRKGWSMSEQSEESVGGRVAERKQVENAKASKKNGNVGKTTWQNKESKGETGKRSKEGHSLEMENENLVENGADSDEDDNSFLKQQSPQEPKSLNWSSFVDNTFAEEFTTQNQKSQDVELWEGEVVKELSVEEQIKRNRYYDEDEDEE
UniProt O95425: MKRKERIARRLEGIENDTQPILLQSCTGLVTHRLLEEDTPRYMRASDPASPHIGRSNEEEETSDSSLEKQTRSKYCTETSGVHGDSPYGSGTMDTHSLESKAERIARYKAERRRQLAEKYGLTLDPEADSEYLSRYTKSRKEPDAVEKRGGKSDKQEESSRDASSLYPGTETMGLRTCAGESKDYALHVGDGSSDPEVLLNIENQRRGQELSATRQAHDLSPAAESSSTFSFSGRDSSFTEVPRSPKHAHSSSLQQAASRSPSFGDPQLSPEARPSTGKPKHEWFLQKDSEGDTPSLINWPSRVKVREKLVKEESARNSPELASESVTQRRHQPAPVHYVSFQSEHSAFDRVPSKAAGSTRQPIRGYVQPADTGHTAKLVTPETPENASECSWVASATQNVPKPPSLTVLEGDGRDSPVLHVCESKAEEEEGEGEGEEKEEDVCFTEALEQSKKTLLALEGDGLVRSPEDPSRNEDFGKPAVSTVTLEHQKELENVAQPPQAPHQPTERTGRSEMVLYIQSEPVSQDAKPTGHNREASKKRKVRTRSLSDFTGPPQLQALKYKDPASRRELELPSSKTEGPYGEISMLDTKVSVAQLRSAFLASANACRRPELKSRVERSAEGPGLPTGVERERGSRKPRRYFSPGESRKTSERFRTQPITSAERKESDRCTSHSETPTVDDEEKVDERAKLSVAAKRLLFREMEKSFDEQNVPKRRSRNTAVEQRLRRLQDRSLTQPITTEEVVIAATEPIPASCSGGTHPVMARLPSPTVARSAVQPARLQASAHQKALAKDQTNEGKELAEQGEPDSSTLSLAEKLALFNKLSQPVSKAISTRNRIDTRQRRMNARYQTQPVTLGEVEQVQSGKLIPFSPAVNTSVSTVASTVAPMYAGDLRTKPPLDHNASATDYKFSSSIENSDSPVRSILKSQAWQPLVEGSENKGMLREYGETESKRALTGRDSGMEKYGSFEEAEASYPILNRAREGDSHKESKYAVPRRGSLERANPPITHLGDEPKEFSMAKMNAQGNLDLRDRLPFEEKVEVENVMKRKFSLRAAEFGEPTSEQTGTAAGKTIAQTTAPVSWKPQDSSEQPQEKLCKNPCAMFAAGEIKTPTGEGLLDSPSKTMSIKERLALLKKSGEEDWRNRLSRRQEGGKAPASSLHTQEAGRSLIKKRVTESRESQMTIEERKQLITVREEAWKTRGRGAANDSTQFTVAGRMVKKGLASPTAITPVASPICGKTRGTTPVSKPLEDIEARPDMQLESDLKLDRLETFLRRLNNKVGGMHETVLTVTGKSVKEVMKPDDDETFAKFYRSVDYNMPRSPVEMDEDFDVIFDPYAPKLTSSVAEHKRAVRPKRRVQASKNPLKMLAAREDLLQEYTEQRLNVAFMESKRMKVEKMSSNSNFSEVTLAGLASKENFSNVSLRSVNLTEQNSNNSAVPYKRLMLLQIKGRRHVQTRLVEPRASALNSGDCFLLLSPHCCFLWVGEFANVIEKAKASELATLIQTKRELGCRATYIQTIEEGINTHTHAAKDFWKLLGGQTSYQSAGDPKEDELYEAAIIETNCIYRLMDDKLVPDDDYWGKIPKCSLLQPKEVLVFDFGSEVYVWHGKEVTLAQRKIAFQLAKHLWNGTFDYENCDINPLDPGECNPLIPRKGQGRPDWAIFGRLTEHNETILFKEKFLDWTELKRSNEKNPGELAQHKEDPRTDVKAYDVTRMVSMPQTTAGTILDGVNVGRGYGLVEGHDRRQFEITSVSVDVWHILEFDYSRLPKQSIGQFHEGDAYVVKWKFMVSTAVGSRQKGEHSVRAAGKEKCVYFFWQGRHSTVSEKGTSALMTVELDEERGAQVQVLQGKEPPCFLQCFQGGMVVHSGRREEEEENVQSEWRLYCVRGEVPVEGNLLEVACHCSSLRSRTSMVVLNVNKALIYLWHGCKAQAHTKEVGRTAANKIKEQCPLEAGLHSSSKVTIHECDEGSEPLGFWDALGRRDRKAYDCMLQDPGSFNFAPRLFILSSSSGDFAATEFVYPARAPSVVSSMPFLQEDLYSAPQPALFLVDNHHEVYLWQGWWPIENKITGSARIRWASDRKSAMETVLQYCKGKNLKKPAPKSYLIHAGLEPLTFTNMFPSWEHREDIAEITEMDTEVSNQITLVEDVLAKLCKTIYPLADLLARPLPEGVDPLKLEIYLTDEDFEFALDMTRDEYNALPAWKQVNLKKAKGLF
UniProt P05556: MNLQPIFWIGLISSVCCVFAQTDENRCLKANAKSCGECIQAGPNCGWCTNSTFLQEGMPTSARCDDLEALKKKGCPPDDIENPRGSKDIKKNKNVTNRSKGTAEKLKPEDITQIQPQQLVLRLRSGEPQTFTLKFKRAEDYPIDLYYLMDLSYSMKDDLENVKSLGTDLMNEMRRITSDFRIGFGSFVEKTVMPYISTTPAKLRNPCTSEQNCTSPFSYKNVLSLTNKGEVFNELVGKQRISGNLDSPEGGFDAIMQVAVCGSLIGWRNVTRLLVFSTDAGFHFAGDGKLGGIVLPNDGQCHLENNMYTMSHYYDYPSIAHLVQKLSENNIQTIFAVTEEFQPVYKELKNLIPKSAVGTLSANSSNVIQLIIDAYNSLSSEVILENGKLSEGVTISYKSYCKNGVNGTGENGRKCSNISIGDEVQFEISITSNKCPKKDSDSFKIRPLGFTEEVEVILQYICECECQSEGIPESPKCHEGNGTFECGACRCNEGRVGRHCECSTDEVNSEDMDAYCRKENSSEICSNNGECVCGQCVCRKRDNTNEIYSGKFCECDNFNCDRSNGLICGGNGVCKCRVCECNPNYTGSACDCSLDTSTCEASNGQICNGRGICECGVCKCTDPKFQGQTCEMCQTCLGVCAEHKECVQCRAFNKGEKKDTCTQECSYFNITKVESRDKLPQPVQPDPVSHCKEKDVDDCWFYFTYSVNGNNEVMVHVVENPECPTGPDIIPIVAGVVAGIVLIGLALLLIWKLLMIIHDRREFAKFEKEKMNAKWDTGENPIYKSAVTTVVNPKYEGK

Key:
[1] = target: Yes-associated protein (YAP) (human (endogenous in MCF10A)) (UniProt P46937); test: affinity purification with mass spectrometry; endogenous YAP immunoprecipitated (anti-YAP on Dynabeads) from MCF10A cells crosslinked with 5 mM DTSSP while sparsely or densely plated on 2D tissue culture plastic; bound fraction by SDS-PAGE and UPLC-MS/MS; common contaminants excluded
[2] = target: Yes-associated protein (YAP) (human (endogenous in MCF10A)) (UniProt P46937); test: as above; remark: listed apart in the source

binding [1]: binds
Molecule: LIMA1 (from UniProt Q9UHB6 1-759)

binding [1]: binds
Molecule: supervillin (from UniProt O95425 1-2214)

binding [1]: binds
Molecule: β1 integrin (from UniProt P05556 21-798) (receptor)

binding [2]: binds
B1: ODP2 (protein, UniProt P10515 87-647)
chain: SLPPHQKVPLPSLSPTMQAGTIARWEKKEGDKINEGDLIAEVETDKATVGFESLEECYMAKILVAEGTRDVPIGAIICITVGKPEDIEAFKNYTLDSSAAPTPQAAPAPTPAATASPPTPSAQAPGSSYPPHMQVLLPALSPTMTMGTVQRWEKKVGEKLSEGDLLAEIETDKATIGFEVQEEGYLAKILVPEGTRDVPLGTPLCIIVEKEADISAFADYRPTEVTDLKPQVPPPTPPPVAAVPPTPQPLAPTPSAPCPATPAGPKGRVFVSPLAKKLAVEKGIDLTQVKGTGPDGRITKKDIDSFVPSKVAPAPAAVVPPTGPGMAPVPTGVFTDIPISNIRRVIAQRLMQSKQTIPHYYLSIDVNMGEVLLVRKELNKILEGRSKISVNDFIIKASALACLKVPEANSSWMDTVIRQNHVVDVSVAVSTPAGLITPIVFNAHIKGVETIANDVVSLATKAREGKLQPHEFQGGTFTISNLGMFGIKNFSAIINPPQACILAIGASEDKLVPADNEKGFDVASMMSVTLSCDHRVVDGAVGAQWLAEFRKYLEKPITMLL
